These are yes or no findings as the source states them, for the method shown. Binding seen in cells or lysates may run through a third protein. Binding can be weak; no strength is given.
Key:
[1] = target: T1, placental growth factor (human (endogenous in serum)) (UniProt P49763); assay: co-IP; anti-PlGF or anti-Flt-1 (2 ug/mL) added to a serum pool for 30 minutes at room temperature, captured by Dynabeads Streptavidin, immunoblotting of PlGF, sFlt-1, CD9, ApoA-I and ApoB
T1 sequence: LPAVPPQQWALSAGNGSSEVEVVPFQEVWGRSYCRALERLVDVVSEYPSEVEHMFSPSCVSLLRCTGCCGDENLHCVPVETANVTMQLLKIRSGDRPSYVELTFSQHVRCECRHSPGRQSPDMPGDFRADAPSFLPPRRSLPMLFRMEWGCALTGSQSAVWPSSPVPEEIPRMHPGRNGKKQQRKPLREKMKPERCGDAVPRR

The chains behind the UniProt entries cited, without tags or fusion partners. Where a name states a change or a piece, a line headed by the entry shows the natural chain unless it says otherwise. A line that says so, or that is headed by a name, gives the form on record, which may keep a tag or linker.
soluble Fms-like tyrosine kinase-1 (human (endogenous in serum)) (P17948, form named): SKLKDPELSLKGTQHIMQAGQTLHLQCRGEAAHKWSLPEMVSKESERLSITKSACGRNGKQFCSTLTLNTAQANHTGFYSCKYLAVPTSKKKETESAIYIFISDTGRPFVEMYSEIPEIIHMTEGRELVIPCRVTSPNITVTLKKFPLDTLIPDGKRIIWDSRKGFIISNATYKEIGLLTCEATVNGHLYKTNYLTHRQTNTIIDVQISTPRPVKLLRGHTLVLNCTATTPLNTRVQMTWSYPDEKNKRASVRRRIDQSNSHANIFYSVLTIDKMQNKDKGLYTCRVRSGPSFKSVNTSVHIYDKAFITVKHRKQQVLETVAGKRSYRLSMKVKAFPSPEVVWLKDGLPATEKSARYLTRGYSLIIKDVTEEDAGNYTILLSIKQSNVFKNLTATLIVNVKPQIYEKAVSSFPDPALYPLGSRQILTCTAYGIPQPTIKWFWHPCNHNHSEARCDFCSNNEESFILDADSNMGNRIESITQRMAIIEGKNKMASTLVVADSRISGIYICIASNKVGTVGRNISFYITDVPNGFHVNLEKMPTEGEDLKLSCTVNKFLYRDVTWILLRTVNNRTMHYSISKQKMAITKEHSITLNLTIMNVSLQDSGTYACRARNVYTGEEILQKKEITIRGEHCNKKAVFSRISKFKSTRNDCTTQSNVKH
UniProt P02647: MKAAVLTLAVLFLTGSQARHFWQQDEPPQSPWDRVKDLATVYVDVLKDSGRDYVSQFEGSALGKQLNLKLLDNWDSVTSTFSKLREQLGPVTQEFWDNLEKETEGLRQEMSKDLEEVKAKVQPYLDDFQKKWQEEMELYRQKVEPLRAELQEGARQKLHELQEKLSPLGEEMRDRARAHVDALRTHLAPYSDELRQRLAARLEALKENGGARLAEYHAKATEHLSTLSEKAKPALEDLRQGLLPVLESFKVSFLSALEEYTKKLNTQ

[2] = target: soluble Fms-like tyrosine kinase-1 (human (endogenous in serum)) (UniProt P17948); assay: as above

Row | binding [1] | binding [2] | Substance
1 | binds | binds | apolipoprotein A-I (from UniProt P02647)
2 | binds |  | apolipoprotein B (human (endogenous in serum))

From publication PMC11404752
